The text below walks through data of US20110098339A1.

Assay [1] addresses T1, ANT2 protein (endogenous, PK-1 cells) (human) (UniProt P05141).
T1 sequence: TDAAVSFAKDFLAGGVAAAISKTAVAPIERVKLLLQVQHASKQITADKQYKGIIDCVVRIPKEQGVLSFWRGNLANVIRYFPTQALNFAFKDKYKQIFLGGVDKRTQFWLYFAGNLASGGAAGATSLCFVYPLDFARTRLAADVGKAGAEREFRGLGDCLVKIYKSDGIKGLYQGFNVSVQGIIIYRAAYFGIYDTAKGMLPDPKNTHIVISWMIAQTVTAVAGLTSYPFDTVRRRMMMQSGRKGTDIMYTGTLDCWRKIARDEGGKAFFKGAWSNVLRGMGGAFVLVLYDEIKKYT
Briefly: immunoprecipitation followed by mass spectrometry (FIG. 3C legend).

Assay [2] deals with T1, ANT2 protein (endogenous, PK-1 cells) (human). Briefly: anti-HA immunoprecipitation from lysate of cells over-expressing C2orf18-HA, mass spectrometry of co-precipitated bands.

Results are given in words; binding and its absence hold for the method and conditions named. In cells and extracts the contact can be indirect. These calls come from enrichment with a bait or labelling near it, and not all partners need be listed. Sequences can lack the tags named with a protein.

B1: C2orf18-HA (protein, not shown: small tags and cut ends)
chain: SINTLSAKWADNFMAEGCGGSKEHSFQHPFLQAVGMFLGEFSCLAAFYLLRCRAAGQSDSSVDPQQPFNPLLFLPPALCDMTGTSLMYVALNMTSASSFQMLRGAVIIFTGLFSVAFLGRRLVLSQWLGILATIAGLVVVGLADLLSKHDSQHKLSEVITGDLLIIMAQIIVAIQMVLEEKFVYKHNVHPLRAVGTEGLFGFVILSLLLVPMYYIPAGSFSGNPRGTLEDALDAFCQVGQQPLIAVALLGNISSIAFFNFAGISVTKELSATTRMVLDSLRTVVIWALSLALGWEAFHALQILGFLILLIGTALYNGLHRPLLGRLSRGRPLAEESEQERLLGGTRTPINDAS
Consider B1, for which the binding result in assay [1] and in assay [2] was “binds” throughout.
